3 sequences from patent publication US20060162001 can be followed below.

Construct, isoform or probe ends are uncertain for at least one entry. For some of these results: Where cells or extracts were used, other partners may take part.

Series [1] addresses MGR p70 (mammalian grainyhead, p70 isoform) (human) (UniProt Q9NZI5). The series can be described thus: competition with a labelled probe. The settings on record: 10- or 20-fold excess unlabeled En-1 probe markedly reduced MGR binding to Ddc probe in EMSA; JEG-3 nuclear extract; protein in an extract.
The target is the same in series [2]. The experiment in a line: activity in cells. The note with it: p70 MGR enhanced luciferase from En-1 promoter region linked to minimal gamma-globin promoter in COS cells; no effect on control promoters; protein in cells; protein details: mammalian expression vector in COS cells.
Series [3] shares this target. The experiment in a line: EMSA. The settings on record: JEG-3 nuclear extract, protein in an extract.

With “GGACACACACCCAAACCCACACCCACCCACAAACACACAAACCGGCAGTGACAACAACCACCCATCCTTCAATAACAGCAACCA (double strand) [human Engrailed-1 proximal promoter probe]”, the binding result in series [1] is “binds”. In addition, the “activity on this sequence” value in series [2] is “active”.
For the sequence “GGGTAAAAAGTGTGAACAATCAAACCAGTTGGCA (double strand) [Drosophila PCNA promoter probe]”, the binding result in series [3] (complex supershifted by anti-p70 antisera 67 and ablated by antisera 611 (common to p49/p70)) is recorded as “binds”.
For the sequence “GGTGGTGCTCTAATAACCGGTTTCCAAGATGCGC (double strand) [Drosophila Dopa decarboxylase (Ddc) promoter probe]”, the binding result in series [3] (supershifted by antisera 67, ablated by 50-fold excess unlabeled Ddc probe) is given as “binds”.
